From PubChem BioAssay record AID1159506 (NCATS, 2015).

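Genome-wide siRNA knockdown in TC32 Ewing sarcoma cells, comparing luciferase light from an NR0B1-promoter reporter with a CMV-promoter reporter 48 hours after transfection. Each siRNA was applied at 20 nM. A z-score of the log NR0B1-over-CMV signal, less the median of siRNAs with the same seed; more negative means a stronger specific loss of the NR0B1 reporter.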

The strongest results of the screen are mostly left out here. Sequences are the guide (antisense) strand, without overhang.

| Sequence | target gene | seed-corrected z-score |
|---|---|---|
| `UCCGUAAUAACUCCUGAAG` | MTMR11 | 0.01469 |
| `UGUUAGAUAAGAGGUAAAC` | C2CD3 | -0.3784 |
| `UUAGUUAAUGCCUAUCACC` | ARMS2 | -0.08215 |
| `CAGGAGAUACGGUUGGUGC` | LOC646034 | 0.3157 |
| `AUCGGGAUUAUCCAUGUUC` | CD19 | 0.954 |
| `UUCUAAACUAGGGAACCAC` | TOR1AIP2 | -1.547 |
| `UGAUGCUCUUGAAUCAUGC` | PMFBP1 | -0.4186 |
| `UUUGAUACUUGUUUUACAA` | C7orf61 | 0.0005958 |
| `AAUAUAGUAUCUUCCAUAG` | GGH | 0.3606 |
| `UCUGGAACCAUGUUGUGCU` | SLC36A1 | -0.4148 |
| `UGUUGUCAAACGGCUCAGC` | NDUFV3 | 0.1061 |
| `UUCCGUAGCACUGAGAAUG` | ZSWIM7 | 0.257 |
| `UUCUCUAGAAGCUUGACCU` | WDR6 | 1.161 |
| `ACAGAGCUGAGUACAGUGC` | SLC7A7 | -0.5867 |
| `UUCCAGGUAAUAAUCCACC` | TSC1 | -0.8046 |
| `UCUGGAUCUAAGCUGAUGC` | STX16 | -0.3766 |
| `AACAGGUUAAUUUUGACUG` | RPE65 | -0.08074 |
| `AAAGUACCAGGGUUGGUCU` | SRMS | 0.3185 |
| `UCUAAUCUAAAACCGCUCC` | MIR22HG | 1.259 |
| `UCAUUUGUGAUCCUCAUGU` | ST14 | 0.201 |
| `UGUCUGAUAGGAGCUGUUC` | ERICH6B | -1.414 |
| `AUCAGUUCAGUCGUCAUGC` | MDH1B | 0.1252 |
| `UUGCGGUUCUCGAUGAUGC` | SRL | -0.8123 |
| `UCUAUUUACAGGCCUCUCC` | MLLT3 | 1.266 |
| `UAAAUUUCUACGCAGAUAU` | NOXRED1 | 0.806 |
| `UCAAAGAGUUGCAGUAUCC` | COA5 | 0.7374 |
| `UCCCUCUCCACAAUGCGUC` | COASY | 0.07277 |
| `UCUUUCUUCUGGUAGAAGC` | MOBP | 0.0399 |
| `UUGUUGUACCCAGAGCUGU` | ZKSCAN7 | -0.4644 |
| `AAUGUAGAUAACAUAUUUC` | RPL26 | -0.4229 |
| `UGCUGUACAAACCAUGAAC` | ZNF766 | 0.2311 |
| `UUCUGGUAACCGUUCAUGG` | UBTF | 0.1323 |
| `UUCUUGUUCUGAAAGGAAU` | LINC00935 | 0.8056 |
| `UGCUUUACUAGCUACUUCC` | USP38 | 1.242 |
| `UAAGUUAAAUAUUCGCCUU` | STXBP6 | 0.9066 |
| `AACUCUAUCAUCUGGCCUC` | CRYGD | 0.1545 |
| `UGACGUAGAAGAGUGCGUU` | NTSR1 | 0.366 |
| `UUCAUCACCAUUGCGGUUG` | SLC12A5 | 0.08543 |
| `UCACGGUGUGGUCAUCUGC` | KATNB1 | 0.3472 |
| `UUCUUGACAGGCUCCCACA` | REG3G | -1.095 |
| `UCAGCGAAGAAGAGCACGC` | B3GAT2 | 0.3054 |
| `UAUCAUAAGAUGCAGUAGC` | WSB1 | 0.162 |
| `UACAUGAGAAACCAAAAUC` | GPR174 | 0.07875 |
| `UUUGGUUUUUAUCCGGGCC` | SPINK4 | 0.4144 |
| `UUUGCUCUCCGAGUAGACG` | MC3R | -0.4762 |
| `UCAAUGACCUGAAUCUUGG` | PRPS2 | -0.615 |
| `UGCUCUUCCAUAGAUACAC` | PSMD4 | -1.912 |
| `AACCCUCCUACUGAGACCC` | ARL6IP1P2 | 0.6462 |
| `UCCCUUAAAAUCCUAGAUG` | ASGR1 | 0.2574 |
| `UCAGUUAGAGUUAAGGAUG` | ZNF56 | 0.02338 |
| `AACUCUUUAUGUUCAAACC` | ST6GAL2 | -0.5642 |
| `UUCAUGACAACAUCCGCUC` | TMPRSS11D | -0.161 |
| `UGAUGCGUGAGAAAUUUGC` | SERPINA6 | 0.2041 |
| `UGACGGAUAUGUUUACUGG` | KRT84 | -0.08732 |
| `ACACCUAACAGGAUGGUGC` | LAPTM4BP1 | -0.1085 |
| `AACUGGAUAUAAUAGUCGC` | LMTK2 | -1.332 |
| `UUCACAUCGGAAUCGAUUC` | FAM156A | -0.268 |
| `UUAGCAGACAGGUCAAGCC` | DAAM2 | 1.684 |
| `UUUCGGUAGUCUAUGGUGC` | RBM15 | -0.3254 |
| `AAACGCAAAGUGGAACUGG` | TMEM187 | -0.4204 |
| `UUAUAAGGCGAGAUAAUGC` | ZNF491 | 1.542 |
| `UGUCAUCCAAAUCCCACGC` | C16orf71 | -1.111 |
| `UUUCUGAUGCACCCAAGCC` | LOC644893 | -0.5378 |
| `UUUAGGACAUCUCUUAUAG` | LRPPRC | 0.3428 |

Some entries from above, unchanged:

Result for UUCUAAACUAGGGAACCAC against TOR1AIP2 was seed-corrected z-score -1.547.
Result for UUGUUGUACCCAGAGCUGU against ZKSCAN7 was seed-corrected z-score -0.4644.
Result for UCAAUGACCUGAAUCUUGG against PRPS2 was seed-corrected z-score -0.615.
Result for UUCAUCACCAUUGCGGUUG against SLC12A5 was seed-corrected z-score 0.08543.
Result for UUUGAUACUUGUUUUACAA against C7orf61 was seed-corrected z-score 0.0005958.
Result for UUUAGGACAUCUCUUAUAG against LRPPRC was seed-corrected z-score 0.3428.
Result for UCAAAGAGUUGCAGUAUCC against COA5 was seed-corrected z-score 0.7374.